The record followed here is paper PMC7774954, “Interactomic affinity profiling by holdup assay: Acetylation and distal residues impact the PDZome-binding specificity of PTEN phosphatase” (PLoS ONE, 2020).

Molecules are shown by their SMILES. The source gives many values for each of these; only a part stands here. *1 amine or outer side, *2 acyl side, *3 side chain or, on linkers, in order; H or OH if unused. Where a SMILES comes first, the peptide text is derived from it. The star is where a group is joined. X1 = O=C(CCCC[C@@H]1SC[C@@H]2NC(=O)N[C@@H]21)NCCCOCCOCCOCCCN*; Suc = O=C(CCC(=O)[*:2])[*:1]

For this assay, the system named is 266 human PDZ domains (PDZome). Kind of assay: Holdup assay (chromatographic retention, PDZome-binding profile, BI). Set-up: key: binding intensity: 0.00 = no binding, 1.00 = maximal binding. On the procedure: The holdup method is a chromatographic approach in solution developed in our group that allows to measure the binding strength of a peptide, attached to a resin, against a library of domains of a same family. We initially proposed this method to explore the interaction between PBM peptides and the human PDZ domains. Briefly, a soluble cell lysate containing individually overexpressed PDZ domain is incubated until equilibrium with a calibrated amount of streptavidin-resin saturated either with the target biotinylated PBM peptide or with biotin as a reference. The flow-throughs containing the unbound protein fraction are recovered by filtration and loaded on a capillary electrophoresis instrument to quantify the amount of remaining free PDZ. The stronger the steady-state depletion of the PDZ domain in the flow-through as compared to the reference, the stronger the PDZ/PBM binding interaction. The assay is particularly suited to quantitatively evaluate and compare large numbers of interactions. This method delivers, for each PBM/PDZ pair, a "binding intensity" (BI), whose value can in principle range from 0.00 (no binding event detected) to 1.00 (maximal binding event). The approach has been automated and the human PDZ library was recently extended to the complete 266 PDZ domains known in human proteome. […] The high accuracy and efficiency of the holdup assay have been validated previously. Very recently, a manual version of the holdup assay with purified samples and using widespread benchtop equipment has been implemented and has proven to be reliable.
The 266 PDZ domains that constitute the PDZ library (“PDZome V.2”) used in the present work were produced using constructs with optimized boundaries as described previously. All the genes were fused to Maltose-Binding Protein (MBP) or Thioredoxin (THR) tag often used to facilitate the solubilisation of the over-expressed protein, by cloning them into the pETG41A or pETG20A plasmid, respectively. […] The expressed tag-PDZ concentrations were quantified using capillary gel electrophoresis and cell lysates were diluted to reach approximately 5 μM tag-PDZ before freezing in 96-well plates. A detailed protocol of the PDZ library production, expression and benchmarking can be found in [32]. PDZ domains are named according to their originating protein name followed by the PDZ number (e.g. NHERF1-1 as the first PDZ domain of the NHERF1 protein).
The holdup assay was performed on a Tecan freedom Evo200 robot with 384-well plates in singlicate for the three 11-mer PTEN variants and the 13-mer PTEN peptide as described in [31, 32]. Briefly, prior to interaction assay, 2.5 μL of streptavidin resin was saturated in each well with 20 μL of biotinylated PBM peptides (42 μM) and then washed twice with an excess of free biotin, while the reference resin was incubated only with biotin. Right before the holdup experiment, the PDZ library was spiked with an internal standard of lysozyme. Then, the biotin- or PBM-saturated resin was incubated, each in a distinct well of a 384-well plate, with complete cell lysates diluted so that the concentration of the tag-PDZ present in the crude extract is adjusted at 4 μM. After a sufficient time to reach complex equilibrium (15 min.), a fast and mild filtration step is performed and the tag-PDZ concentrations were measured by capillary electrophoresis instrument (LabChip GXII, PerkinElmer, Massachusets, USA). Standard markers were used to convert migration time into molecular weight on the LabChip software and inappropriate molecular weight markers were corrected or excluded.
Holdup data quality check and processing […]

Compound `CC[C@H](C)[C@H](NC(=O)[C@H](CCC(N)=O)NC(=O)[C@@H](NC(=O)[C@H](Cc1c[nH]cn1)NC(=O)[C@H](CCC(N)=O)NC(=O)[C@H](CC(=O)O)NC(=O)[C@H](CCC(=O)O)NC(=O)[C@H](CC(=O)O)NC(=O)[C@H](Cc1ccccc1)NC(=O)[C@@H]1CCCN1C(=O)CCC(=O)NCCCOCCOCCOCCCNC(=O)CCCC[C@@H]1SC[C@@H]2NC(=O)N[C@@H]21)[C@@H](C)O)C(=O)N[C@H](C(=O)N[C@@H](CCCCN)C(=O)N[C@H](C(=O)O)C(C)C)[C@@H](C)O` [PTEN_13] ({X1-Suc}-PFDEDQHTQITKV-OH) yielded a BI (PDZ domain STXB4-1) of 0.012; a BI (PDZ domain SYNJ2BP-1) of -0.022; a BI (PDZ domain SYNP2-1) of -0.11; a BI (PDZ domain SYNPO2L-1) of -0.016; a BI (PDZ domain TIAM1-1) of -0.052; a BI (PDZ domain TIAM2-1) of 0.025. Besides, the BI is given as 0.031 (PDZ domain TJP1-1); 0.259 (PDZ domain TJP1-2); -0.042 (PDZ domain TJP1-3); -0.017 (PDZ domain TJP2-1); 0.182 (PDZ domain TJP2-2); -0.095 (PDZ domain TJP2-3). Further, the BI reads like this: (PDZ domain TJP3-1) 0.004; (PDZ domain TJP3-2) -0.088; (PDZ domain TJP3-3) -0.008; (PDZ domain TX1B3-1) -0.012; (PDZ domain USH1C-1) 0.022; (PDZ domain USH1C-2) 0.038. Moreover, the BI (PDZ domain USH1C-3) is 0.076.

In the case of `CC[C@H](C)[C@H](NC(=O)[C@H](CCC(N)=O)NC(=O)[C@@H](NC(=O)[C@H](Cc1c[nH]cn1)NC(=O)[C@H](CCC(N)=O)NC(=O)[C@H](CC(=O)O)NC(=O)[C@H](CCC(=O)O)NC(=O)[C@H](CC(=O)O)NC(=O)CCC(=O)NCCCOCCOCCOCCCNC(=O)CCCC[C@@H]1SC[C@@H]2NC(=O)N[C@@H]21)[C@@H](C)O)C(=O)N[C@H](C(=O)N[C@@H](CCCCNC(C)=O)C(=O)N[C@H](C(=O)O)C(C)C)[C@@H](C)O` [PTEN_Ac], the BI is, setting by setting: (PDZ domain TJP1-2) 0.019; (PDZ domain TJP1-3) -0.024; (PDZ domain TJP2-1) 0.123; (PDZ domain TJP2-2) -0.035; (PDZ domain TJP2-3) -0.023; (PDZ domain TJP3-1) -0.023. In addition, the BI (PDZ domain TJP3-2) is recorded as -0.118; the BI (PDZ domain TJP3-3) is recorded as 0.028; the BI (PDZ domain TX1B3-1) is on record as 0.18; the BI (PDZ domain USH1C-1) is -0.024; the BI (PDZ domain USH1C-2) is on record as -0.011.
